The results in this text go back to paper PMC11477000, “Enantioselective Binding of Proton Pump Inhibitors to Alpha1-Acid Glycoprotein and Human Serum Albumin—A Chromatographic, Spectroscopic, and In Silico Study” (International Journal of Molecular Sciences, 2024).

Each structure is given as a SMILES string.

Data set [1] concerns α1-acid glycoprotein (AGP). In words: HPLC on AGP-based chiral stationary phase (ChromTech Chiral-AGP column). Format: binding, human. Conditions: 25 °C. The procedure: HPLC using a protein-based chiral stationary phase is a fully automated method for obtaining rapid information about the binding of compounds to the respective proteins. Enantioseparation occurs in the case of unequal binding constants of the individual enantiomers to the immobilized proteins, thus allowing enantioselective binding to be characterized even when a racemic mixture was injected. As a preliminary step, the enantiospecific binding was investigated on columns containing AGP and HSA in various alcohol:buffer mixtures. A pH 7 phosphate buffer was employed as the aqueous part of the mobile phase, while for the organic part, three different alcohols were evaluated. […]
Chromatographic measurements were carried out on two separate HPLC systems. The AGP binding study was performed on a Waters 2695e chromatographic system paired with a Waters 2996 PDA detector, controlled by Empower 3 FR5 (Waters Corp., Milford, MA, USA), while the HSA binding study was performed on an Agilent 1100 HPLC system, consisting of an inline degasser (G1322A), a quaternary pump (G1311A), an automatic injector (G1329A) paired with sample thermostat (G1330A), a column thermostat (G1316A), and a diode array detector (G1315A) with Agilent Chemstation B04.03-SP2 software (Agilent, Bronnwald, Germany). For the binding studies, two protein-based chiral stationary phases were utilized. The chromatographic binding study for AGP was conducted on a ChromTech Chiral-AGP column (150 mm × 4.0 mm; ChromTech Ltd., Congleton, UK), while the binding study for HSA was performed on a Daicel Chiralpak HSA column (50 mm × 4.0 mm; Daicel Corp., Osaka, Japan). The detection wavelength was 210 nm for all measurements. The stock solutions of PPIs were prepared at a concentration of 1 mg/mL in MeOH. Subsequent dilutions were prepared using water. The injected samples were mixed and diluted from the stock solutions. The final concentration for the eutomer was 0.2 mg/mL, and for the distomer, it was 0.1 mg/mL. A volume of 2 μL was injected. To mitigate the instability of PPIs in aqueous solutions, the samples were kept at a temperature of 4 °C.

Data set [2] has as its system α1-acid glycoprotein (AGP). The data set is described as follows: van 't Hoff thermodynamic analysis on AGP column. The data set is classed as binding, human. Conditions: for Δ(ΔG°) / Δ(ΔH°) / Δ(ΔS°): pH 7, 95:5 buffer:IPA, 10–30 °C. How it is done: The temperature effect was investigated at pH 7 and a 95:5 buffer:IPA eluents ratio, between 10 and 30 °C on both columns. […] The determination of thermodynamic parameters can provide valuable insights into the process of enantiodiscrimination, including its mechanistic aspects. The applied classical van ’t Hoff methodology postulates the existence of solely enantioselective interaction sites on the stationary phase. Nonetheless, it should be emphasized that a more realistic approach would encompass both enantioselective and non-enantioselective interactions. The isoenantioselective temperatures (Tiso) were calculated by dividing Δ(ΔH°) by Δ(ΔS°). At this temperature, enthalpy and entropy compensations negate each other, resulting in the coelution of the two enantiomers and no separation. The Q values (Q = Δ(ΔH°)/T × Δ(ΔS°)298K) were used for visualizing the relative contribution of enthalpic and entropic terms to the free energy of adsorption. If the Q values were smaller than 1, the enantioseparation was controlled by entropy to a higher extent.
Classical van ’t Hoff analysis was applied to determine the thermodynamic parameters. Van ’t Hoff plots were constructed by plotting the natural logarithm of the retention factor as a function of the inverse of the absolute temperature (thermodynamic temperature) over a temperature range of 10–30 °C:(5) […]
In the equation, R represents the universal gas constant, T represents the absolute temperature in Kelvin, and k represents the retention factor of the enantiomers. ΔH° stands for the standard enthalpy, while ΔS° represents the standard entropy change of transfer of the solute from the mobile phase to the stationary phase. Φ is the phase ratio of the column. If ΔH° remains constant within the selected temperature range, a linear relationship can be observed between lnk and 1/T. The slope of this relationship is −ΔH°/R, and the intercept is ΔS°/R + ln Φ. Since the value of the phase ratio is rarely known, ΔS°* values (ΔS°* = ΔS° + Rln Φ) are often used to account for the uncertainty in Φ. Similarly, the difference in the change of standard enthalpy, Δ(ΔH°), and standard entropy, Δ(ΔS°), for the two enantiomers was calculated as follows:(6) lnα=−ΔΔH°/RT+ΔΔS°/R

Where [3] appears, read: 2.5% IPA, 10 mM pH 7 phosphate buffer.
Where [4] appears, read: 5% EtOH, 10 mM pH 7 phosphate buffer.
The mark [5] stands for this setting: 5% MeOH, 10 mM pH 7 phosphate buffer.
The mark [6] stands for this setting: 7.5% EtOH, 10 mM pH 7 phosphate buffer.
[7] abbreviates: 7.5% MeOH, 10 mM pH 7 phosphate buffer.
Setting [8] is: 10% MeOH, 10 mM pH 7 phosphate buffer.
Setting [9] is: 15% MeOH, 10 mM pH 7 phosphate buffer.
Where [10] appears, read: acetate buffer, 2.5% 2-propanol.
Setting [11] is: bicarbonate buffer, 2.5% 2-propanol.
The mark [12] stands for this setting: citrate buffer, 2.5% 2-propanol.
Setting [13] is: phosphate buffer, 2.5% 2-propanol.
Where [14] appears, read: difference between the two enantiomers.
Setting [15] is: 5% IPA, 10 mM pH 7 phosphate buffer.
Setting [16] is: 7.5% IPA, 10 mM pH 7 phosphate buffer.
The mark [17] stands for this setting: 10% EtOH, 10 mM pH 7 phosphate buffer.
Where [18] appears, read: 10% IPA, 10 mM pH 7 phosphate buffer.
Setting [19] is: 12.5% IPA, 10 mM pH 7 phosphate buffer.
Setting [20] is: 15% EtOH, 10 mM pH 7 phosphate buffer.
Where [21] appears, read: 15% IPA, 10 mM pH 7 phosphate buffer.

Take `COc1ccc2[nH]c([S+]([O-])Cc3ncc(C)c(OC)c3C)nc2c1` (centres unmarked) [Omeprazole, omeprazole]: the “EEO enantiomer elution order” value in data set [1] (setting [3]), in data set [1] (setting [4]), in data set [1] (setting [5]), in data set [1] (setting [6]), in data set [1] (setting [7]) and in data set [1] (setting [8]) was “R < S” in each case. The “EEO enantiomer elution order” value in data set [1] (setting [9]) is “R < S”. For the same compound, the Rs resolution in data set [1] (setting [3]) stood at 1.2; in data set [1] (setting [4]) it was 1.0; in data set [1] (setting [5]) it was 1.8; in data set [1] (setting [6]), 0.2; in data set [1] (setting [7]), 1.5; in data set [1] (setting [8]), 1.1. The Rs resolution in data set [1] (setting [9]) is 1.3; in data set [1] (setting [10]) it was 1.3; in data set [1] (setting [11]), 0.61; in data set [1] (setting [12]) it was 1.3; in data set [1] (setting [13]) it was 1.2.
In turn, `Cc1c(OCC(F)(F)F)ccnc1C[S+]([O-])c1nc2ccccc2[nH]1` (centres unmarked) [Lansoprazole, lansoprazole] came in with a Q in data set [2] (Q = Δ(ΔH°)/T × Δ(ΔS°)298K) of 0.9. In addition, the “Δ(ΔG°)” value in data set [2] (setting [14]) is -0.382 kcal/mol. Further, the “Δ(ΔH°)” value in data set [2] (setting [14]) came out at 2.32 kcal/mol. Besides, the “EEO enantiomer elution order” value in data set [1] (setting [3]), in data set [1] (setting [4]), in data set [1] (setting [15]), in data set [1] (setting [5]), in data set [1] (setting [6]) and in data set [1] (setting [16]) was “S < R” throughout. Moreover, the “EEO enantiomer elution order” value in data set [1] (setting [7]), in data set [1] (setting [17]), in data set [1] (setting [18]), in data set [1] (setting [8]), in data set [1] (setting [19]) and in data set [1] (setting [20]) was “S < R” throughout. In addition, the “EEO enantiomer elution order” value in data set [1] (setting [21]) and in data set [1] (setting [9]) was “S < R” in each case. Moreover, the Rs resolution stood at 1.5 in data set [1] (setting [3]); 1.3 in data set [1] (setting [4]); 1.7 in data set [1] (setting [15]); 1.2 in data set [1] (setting [5]); 1.3 in data set [1] (setting [6]); 1.5 in data set [1] (setting [16]). Further, the Rs resolution in data set [1] (setting [7]) amounted to 1.1; in data set [1] (setting [17]) it was 1.2; in data set [1] (setting [18]), 1.3; in data set [1] (setting [8]), 1.1; in data set [1] (setting [19]), 1.1; in data set [1] (setting [20]), 1.0. Besides, the Rs resolution is listed as 0.8 in data set [1] (setting [21]); 0.9 in data set [1] (setting [9]); 0.8 in data set [1] (setting [10]); 1.7 in data set [1] (setting [11]); 2.2 in data set [1] (setting [12]); 1.5 in data set [1] (setting [13]).
As for `Cc1c(OCC(F)(F)F)ccnc1C[S@@+]([O-])c1nc2ccccc2[nH]1` [R-lansoprazole, dexlansoprazole], in data set [2] (single enantiomer), the “Δ(ΔG°)” value is -1.58 kcal/mol, the “Δ(ΔH°)” value was -5.31 kcal/mol and the “Δ(ΔS°)” value is −52.7 J/molK.
The matching figures for `Cc1c(OCC(F)(F)F)ccnc1C[S@+]([O-])c1nc2ccccc2[nH]1` [S-lansoprazole]: -1.2 kcal/mol, -7.67 kcal/mol and −90.9 J/molK.
On to `COCCCOc1ccnc(C[S+]([O-])c2nc3ccccc3[nH]2)c1C` (centres unmarked) [Rabeprazole, rabeprazole], for which the “EEO enantiomer elution order” value in data set [1] (setting [3]), in data set [1] (setting [4]), in data set [1] (setting [15]), in data set [1] (setting [5]), in data set [1] (setting [6]) and in data set [1] (setting [7]) was “R < S” throughout. Moreover, the “EEO enantiomer elution order” value in data set [1] (setting [17]), in data set [1] (setting [8]), in data set [1] (setting [20]) and in data set [1] (setting [9]) was “R < S” each time. In addition, the Rs resolution in data set [1] (setting [3]) stood at 2.5; in data set [1] (setting [4]) it was 2.9; in data set [1] (setting [15]) it was 1.0; in data set [1] (setting [5]), 3.7; in data set [1] (setting [6]), 2.0; in data set [1] (setting [7]), 2.6. Further, the Rs resolution in data set [1] (setting [17]) was determined as 1.4; in data set [1] (setting [8]) it was 3.1; in data set [1] (setting [20]), 0.6; in data set [1] (setting [9]), 3.4; in data set [1] (setting [10]), 1.5; in data set [1] (setting [11]) it was 0.81. Further, the values for the Rs resolution in data set [1] (setting [12]) and in data set [1] (setting [13]) were 0.49 and 2.5, respectively.
